# Data as given in PubChem BioAssay AID330 (DTP/NCI, 2004).
# The list is a part of this screen's results and no random one: it is rich in T/C values a quarter to a half above the control, in often repeated tests (any T/C) and in doses without a T/C. Other doses and runs of a compound stand elsewhere. T/C gives the treated animals as a percentage of the vehicle group. Some entries give survivors of the animals treated and no T/C: the source files T/C as zero there, which appears to mark a toxic dose or a test without result, not a measured value. Some doses without a T/C left all or most animals alive at the check, yet need not have been tolerated: the source hardly ever lists a survival T/C far under the control, and the zero likely stands for such cases as well. Counts of survivors are from the toxicity check (mostly the fifth day) where no day follows; animals may have died later. Schedules are NCI's codes, taken here to give the interval after Q, in days (D) or hours (H), and the number of doses after X. Some doses were run more than once; the results are listed from low to high. For survival time, this PubChem deposit counts one and a half times the control or more as active, and values a quarter to a half above the control carry no call in these data; other NCI protocols may use other cut-offs. Some T/C values carry the count of animals alive at the toxicity check (mostly the fifth day); without a count, all were alive then.
# System: P388 leukemia ip, CD2F1 mice, survival T/C
# Test: NCI In Vivo Anticancer Drug Screen. Data for tumor model P388 Leukemia (intraperitoneal) in CD2F1 (CDF1) mice
# Conditions: T/C endpoint: median survival time, higher T/C = longer survival
# [1] = dose: 50.0 mg/kg/injection, schedule: Q01DX009 (ip), vehicle: saline
# [2] = dose: 100.0 mg/kg/injection, schedule: Q01DX009 (ip), vehicle: saline
# [3] = dose: 200.0 mg/kg/injection, schedule: Q01DX009 (ip), vehicle: saline
# [4] = dose: 200.0 mg/kg/injection, schedule: Q01DX005 (ip), vehicle: saline with Tween-80
compound,measurement,setting,value
CC(=O)OCC1OC(N(CCCl)CCCl)C(OC(C)=O)C(OC(C)=O)C1OC(C)=O (stereo unspecified),T/C,"dose: 5.0 mg/kg/injection, schedule: Q01DX005 (ip), vehicle: distilled water + Tween-80",149 % of control
same,T/C,"dose: 10.0 mg/kg/injection, schedule: Q01DX005 (ip), vehicle: distilled water + Tween-80","129, 132, 146 % of control"
same,survivor count,"dose: 40.0 mg/kg/injection, schedule: Q01DX005 (ip), vehicle: distilled water + Tween-80",4 of 5 and 5 of 5
same,survivor count,"dose: 80.0 mg/kg/injection, schedule: Q01DX005 (ip), vehicle: distilled water + Tween-80",4 of 5
O=C1C2C3CCC(O3)C2C(=O)N1SC(Cl)(Cl)Cl (stereo unspecified),survivor count,[1],0 of 6
same,survivor count,[2],0 of 6
same,survivor count,[3],0 of 6
COc1ccc2nc3cc(Cl)ccc3c(Nc3ccccc3NS(C)(=O)=O)c2n1,T/C,"dose: 200.0 mg/kg/injection, schedule: Q01DX009 (ip), vehicle: other",128 % of control
same,survivor count,"dose: 300.0 mg/kg/injection, schedule: Q01DX009 (ip), vehicle: other",0 of 6
same,survivor count,"dose: 400.0 mg/kg/injection, schedule: Q01DX009 (ip), vehicle: other",0 of 6
Cc1ccc(-[n+]2c3cc(N)c(C)cc3nc3cc(C)c(Nc4ccccc4)cc32)cc1,survivor count,"dose: 100.0 mg/kg/injection, schedule: Q01DX005 (ip), vehicle: saline + Tween-80 + alcohol",2 of 6
same,survivor count,"dose: 200.0 mg/kg/injection, schedule: Q01DX005 (ip), vehicle: saline + Tween-80 + alcohol",0 of 6
same,survivor count,[4],0 of 5
Cc1ccc(/C=C2/C/C(=C\c3ccc(C)cc3)C2=O)cc1,survivor count,"dose: 100.0 mg/kg/injection, schedule: Q04DX003 (ip), vehicle: Klucel (hydroxypropylcellulose) (HPC)",6 of 6
same,survivor count,"dose: 200.0 mg/kg/injection, schedule: Q04DX003 (ip), vehicle: Klucel (hydroxypropylcellulose) (HPC)",6 of 6
Cc1cc2ccccc2c2nncn12,survivor count,"dose: 200.0 mg/kg/injection, schedule: Q01DX009 (ip), vehicle: saline with Tween-80",0 of 6
C/C(=N\NC(=S)N1CCN(C2CCCCC2)CC1)c1ccccn1,survivor count,"dose: 12.5 mg/kg/injection, schedule: Q01DX005 (ip), vehicle: saline with Tween-80",3 of 6
same,survivor count,"dose: 25.0 mg/kg/injection, schedule: Q01DX005 (ip), vehicle: saline with Tween-80",1 of 6
same,survivor count,"dose: 50.0 mg/kg/injection, schedule: Q01DX005 (ip), vehicle: saline with Tween-80",1 of 6
same,survivor count,"dose: 100.0 mg/kg/injection, schedule: Q01DX005 (ip), vehicle: saline with Tween-80",0 of 6
same,survivor count,[4],0 of 6
O.Oc1ccccc1C=NCCC[N-]CCCN=Cc1ccccc1O.[Co],T/C,"dose: 12.5 mg/kg/injection, schedule: Q01DX009 (ip), vehicle: saline with Tween-80",125 % of control
same,survivor count,"dose: 50.0 mg/kg/injection, schedule: Q01DX009 (ip), vehicle: saline with Tween-80",3 of 6
CC1CN1P(=O)(N1CC=CCC1)N1CC1C (stereo unspecified),T/C,"dose: 22.0 mg/kg/injection, schedule: Q01DX009 (ip), vehicle: saline",145 % of control
same,T/C,[1],136 % of control
N=C(N)c1ccc2cc(/C=C/c3cc4ccc(C(=N)N)cc4o3)[nH]c2c1,T/C,"dose: 6.25 mg/kg/injection, schedule: Q04DX003 (ip), vehicle: suspension in saline",142 % of control
same,T/C,"dose: 12.5 mg/kg/injection, schedule: Q04DX003 (ip), vehicle: saline",131 % of control [5 of 6 alive]
same,T/C,"dose: 12.5 mg/kg/injection, schedule: Q04DX003 (ip), vehicle: suspension in saline",136 % of control
same,T/C,"dose: 25.0 mg/kg/injection, schedule: Q04DX003 (ip), vehicle: saline",141 % of control
same,T/C,"dose: 25.0 mg/kg/injection, schedule: Q04DX003 (ip), vehicle: suspension in saline",142 % of control
same,survivor count,"dose: 100.0 mg/kg/injection, schedule: Q04DX003 (ip), vehicle: suspension in saline",6 of 6
same,survivor count,"dose: 200.0 mg/kg/injection, schedule: Q04DX003 (ip), vehicle: suspension in saline",1 of 6
same,survivor count,"dose: 400.0 mg/kg/injection, schedule: Q04DX003 (ip), vehicle: suspension in saline",0 of 6
CCN(CC)CCC(=O)/C=C/c1ccccc1,T/C,[2],126 and 138 % of control
same,survivor count,[3],0 of 6
Nc1nc2c(nnn2C2OC(CO)C(O)C2O)c(=O)[nH]1 (stereo unspecified),survivor count,[4],0 of 6
COc1ccc(Nc2ccnc3cc(Cl)ccc23)cc1CN(CCCl)CCCl,T/C,"dose: 0.18 mg/kg/injection, schedule: Q01DX009 (ip), vehicle: saline",127 % of control
same,T/C,"dose: 0.37 mg/kg/injection, schedule: Q01DX009 (ip), vehicle: saline",134 % of control
same,T/C,"dose: 0.75 mg/kg/injection, schedule: Q01DX009 (ip), vehicle: saline",142 % of control
same,T/C,"dose: 1.5 mg/kg/injection, schedule: Q01DX009 (ip), vehicle: saline",125 % of control
same,survivor count,"dose: 3.0 mg/kg/injection, schedule: Q01DX009 (ip), vehicle: saline",1 of 6
same,survivor count,"dose: 6.0 mg/kg/injection, schedule: Q01DX009 (ip), vehicle: saline",1 of 6
ClCCN(CCCl)c1ccc(/C=N/Nc2ccnc3ccccc23)cc1,survivor count,"dose: 1.56 mg/kg/injection, schedule: Q01DX009 (ip), vehicle: DMSO",5 of 5
same,survivor count,"dose: 3.12 mg/kg/injection, schedule: Q01DX009 (ip), vehicle: DMSO",5 of 6
same,survivor count,"dose: 6.25 mg/kg/injection, schedule: Q01DX009 (ip), vehicle: DMSO",4 of 6 and 5 of 6
same,survivor count,"dose: 12.5 mg/kg/injection, schedule: Q01DX009 (ip), vehicle: DMSO",3 of 6
same,survivor count,"dose: 25.0 mg/kg/injection, schedule: Q01DX009 (ip), vehicle: DMSO",0 of 6
same,survivor count,"dose: 50.0 mg/kg/injection, schedule: Q01DX009 (ip), vehicle: DMSO",0 of 6
same,survivor count,"dose: 100.0 mg/kg/injection, schedule: Q01DX009 (ip), vehicle: DMSO",0 of 6
same,survivor count,"dose: 200.0 mg/kg/injection, schedule: Q01DX009 (ip), vehicle: DMSO",0 of 6
COC1=CCC2=C(CCN(C)C2Cc2ccc(OC)cc2)C1 (stereo unspecified),survivor count,"dose: 100.0 mg/kg/injection, schedule: Q01DX005 (ip), vehicle: Klucel (hydroxypropylcellulose) (HPC)",1 of 5
same,survivor count,"dose: 200.0 mg/kg/injection, schedule: Q01DX005 (ip), vehicle: Klucel (hydroxypropylcellulose) (HPC)",0 of 6
CC(=O)NC1=NN(C(C)=O)C(c2ccccc2)S1=O (stereo unspecified),survivor count,[4],3 of 6
COC1C(OC(=O)/C=C/C=C/C=C/C=C/C(=O)O)CCC2(CO2)C1C1(C)OC1CC=C(C)C (stereo unspecified),T/C,"dose: 33.0 mg/kg/injection, schedule: Q01DX009 (ip), vehicle: saline",125 % of control
same,T/C,[1],127 % of control
same,T/C,"dose: 75.0 mg/kg/injection, schedule: Q01DX009 (ip), vehicle: saline",136 % of control
same,T/C,"dose: 266.0 mg/kg/injection, schedule: Q04DX003 (ip), vehicle: saline",140 % of control
same,survivor count,"dose: 400.0 mg/kg/injection, schedule: Q04DX003 (ip), vehicle: saline",4 of 6
same,survivor count,"dose: 600.0 mg/kg/injection, schedule: Q04DX003 (ip), vehicle: saline",1 of 6
CCn1c2ccccc2n2c(=O)c(Cc3ccccc3)c(C)c(C#N)c12,survivor count,"dose: 60.0 mg/kg/injection, schedule: Q01DX005 (ip), vehicle: saline with Tween-80",6 of 6
same,survivor count,"dose: 120.0 mg/kg/injection, schedule: Q01DX005 (ip), vehicle: saline with Tween-80",6 of 6
same,survivor count,"dose: 240.0 mg/kg/injection, schedule: Q01DX005 (ip), vehicle: saline with Tween-80",6 of 6
CC1=C[C@@H]2c3cccc4c3c(cn4C)C[C@H]2N(C)C1,survivor count,[4],2 of 6
Cc1[nH]c(C)c(C(=O)OC2CCN(C)CC2)c1C,survivor count,"dose: 100.0 mg/kg/injection, schedule: Q04DX003 (ip), vehicle: saline with Tween-80",0 of 6
same,survivor count,"dose: 200.0 mg/kg/injection, schedule: Q04DX003 (ip), vehicle: saline with Tween-80",0 of 6
same,survivor count,"dose: 400.0 mg/kg/injection, schedule: Q04DX003 (ip), vehicle: saline with Tween-80",0 of 6
